Our source for the inhibition values is patent US7244837B2, “Insect monoamine transporter and methods of use thereof” (The University of Western Ontario, priority 1999, dated 2007).

Structures are written as SMILES.

The assay addresses T1, OA/TAT (octopamine/tyramine transporter) (Trichoplusia ni, UniProt Q95VZ4, D309A/R312W).
T1 sequence (Q95VZ4 75-744 D309A/R312W): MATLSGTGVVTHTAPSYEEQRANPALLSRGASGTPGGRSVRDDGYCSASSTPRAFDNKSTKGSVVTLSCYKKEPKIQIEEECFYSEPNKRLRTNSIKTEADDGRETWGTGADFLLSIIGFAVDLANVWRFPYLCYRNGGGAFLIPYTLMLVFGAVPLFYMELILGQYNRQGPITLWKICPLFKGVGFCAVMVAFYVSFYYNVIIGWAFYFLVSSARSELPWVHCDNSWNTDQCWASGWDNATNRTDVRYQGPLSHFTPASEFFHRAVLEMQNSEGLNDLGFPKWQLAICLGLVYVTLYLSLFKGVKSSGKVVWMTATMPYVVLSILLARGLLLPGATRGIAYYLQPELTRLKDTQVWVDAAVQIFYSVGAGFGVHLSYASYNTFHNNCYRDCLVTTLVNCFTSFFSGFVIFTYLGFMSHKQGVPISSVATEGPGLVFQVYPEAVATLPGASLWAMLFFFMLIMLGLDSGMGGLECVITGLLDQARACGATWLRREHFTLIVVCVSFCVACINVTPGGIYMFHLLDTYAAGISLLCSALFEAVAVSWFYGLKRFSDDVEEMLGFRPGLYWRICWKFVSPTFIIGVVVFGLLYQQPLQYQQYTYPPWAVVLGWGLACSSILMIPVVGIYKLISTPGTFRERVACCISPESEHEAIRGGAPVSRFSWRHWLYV
Put plainly: 3H-dopamine uptake by OA/TAT expressed in baculovirus-infected Sf21 insect cells (transport assay). The conditions noted are these: read-out: % Inhibition of 3H-Dopamine uptake by OA/TAT. In kind it is cell-based.

For `Nc1nc2ccc(OC(F)(F)F)cc2s1` [Riluzole], the inhibition at 100 µM was -11.3%.
